In the supplement of paper PMC7666118:
This is one part of the list.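 How the source made its calls: active = dose-dependent thermal stabilisation significant by F-test of dose-response against flat model at 10% FDR; inactive = not significant.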

Chains of the proteins cited; added tags and fusions are not shown. Lines headed by an entry give the natural chain unless they say otherwise; changes in a name come on top.
UniProt Q9H8K7: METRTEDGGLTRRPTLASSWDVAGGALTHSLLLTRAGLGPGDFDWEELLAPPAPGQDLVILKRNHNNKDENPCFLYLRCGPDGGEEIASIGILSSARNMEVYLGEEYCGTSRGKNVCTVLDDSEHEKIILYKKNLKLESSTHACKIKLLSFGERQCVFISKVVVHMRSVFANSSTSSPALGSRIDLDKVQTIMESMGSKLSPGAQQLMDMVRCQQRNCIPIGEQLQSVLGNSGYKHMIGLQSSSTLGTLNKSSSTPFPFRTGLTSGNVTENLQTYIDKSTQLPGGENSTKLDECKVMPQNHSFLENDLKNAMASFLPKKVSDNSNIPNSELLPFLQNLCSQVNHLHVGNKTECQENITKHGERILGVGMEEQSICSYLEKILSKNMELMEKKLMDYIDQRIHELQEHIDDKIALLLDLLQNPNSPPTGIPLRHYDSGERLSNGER
UniProt O95671: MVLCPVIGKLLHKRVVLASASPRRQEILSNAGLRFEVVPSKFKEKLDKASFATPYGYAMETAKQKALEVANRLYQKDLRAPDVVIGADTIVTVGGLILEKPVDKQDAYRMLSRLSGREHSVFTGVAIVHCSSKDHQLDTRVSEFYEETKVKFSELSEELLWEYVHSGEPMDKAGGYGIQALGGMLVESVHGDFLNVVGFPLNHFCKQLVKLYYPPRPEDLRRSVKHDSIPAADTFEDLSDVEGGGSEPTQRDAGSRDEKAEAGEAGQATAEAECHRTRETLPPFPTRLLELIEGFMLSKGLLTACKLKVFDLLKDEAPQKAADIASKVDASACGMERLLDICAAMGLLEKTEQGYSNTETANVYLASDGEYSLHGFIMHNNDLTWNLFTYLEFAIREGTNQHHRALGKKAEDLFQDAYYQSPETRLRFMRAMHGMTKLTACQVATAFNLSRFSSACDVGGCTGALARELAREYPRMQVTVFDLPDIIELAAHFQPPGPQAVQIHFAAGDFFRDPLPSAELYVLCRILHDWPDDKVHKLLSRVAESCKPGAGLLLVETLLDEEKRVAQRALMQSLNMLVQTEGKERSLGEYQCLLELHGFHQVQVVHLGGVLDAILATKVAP
UniProt Q6QNY1: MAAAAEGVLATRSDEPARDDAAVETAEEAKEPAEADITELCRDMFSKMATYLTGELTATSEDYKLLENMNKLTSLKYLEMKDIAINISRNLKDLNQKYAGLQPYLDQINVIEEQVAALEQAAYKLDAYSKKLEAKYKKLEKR
UniProt Q9H0F7: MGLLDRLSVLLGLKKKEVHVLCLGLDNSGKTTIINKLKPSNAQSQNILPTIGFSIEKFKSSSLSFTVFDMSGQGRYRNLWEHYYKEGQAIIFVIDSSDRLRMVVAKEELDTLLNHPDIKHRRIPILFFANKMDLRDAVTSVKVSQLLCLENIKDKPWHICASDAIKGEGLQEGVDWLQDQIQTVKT
UniProt P04632: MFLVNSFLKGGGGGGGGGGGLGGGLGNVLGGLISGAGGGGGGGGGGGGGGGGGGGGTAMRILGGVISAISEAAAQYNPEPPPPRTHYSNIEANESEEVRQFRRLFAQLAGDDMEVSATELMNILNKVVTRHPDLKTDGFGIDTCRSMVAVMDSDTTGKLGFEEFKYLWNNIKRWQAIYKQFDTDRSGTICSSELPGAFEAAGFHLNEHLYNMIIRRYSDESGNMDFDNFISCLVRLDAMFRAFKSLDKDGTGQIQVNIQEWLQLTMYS
UniProt Q9BPX7: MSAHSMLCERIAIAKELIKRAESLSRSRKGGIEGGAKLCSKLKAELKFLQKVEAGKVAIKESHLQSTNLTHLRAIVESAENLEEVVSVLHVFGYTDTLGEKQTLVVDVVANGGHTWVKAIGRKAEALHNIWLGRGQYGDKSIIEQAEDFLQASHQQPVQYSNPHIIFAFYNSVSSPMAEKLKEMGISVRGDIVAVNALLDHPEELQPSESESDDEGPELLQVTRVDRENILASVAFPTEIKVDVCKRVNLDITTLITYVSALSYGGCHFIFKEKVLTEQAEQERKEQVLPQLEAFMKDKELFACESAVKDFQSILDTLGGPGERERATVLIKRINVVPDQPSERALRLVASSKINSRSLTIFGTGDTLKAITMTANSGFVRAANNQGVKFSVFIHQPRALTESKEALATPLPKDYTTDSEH
UniProt Q8N5I9: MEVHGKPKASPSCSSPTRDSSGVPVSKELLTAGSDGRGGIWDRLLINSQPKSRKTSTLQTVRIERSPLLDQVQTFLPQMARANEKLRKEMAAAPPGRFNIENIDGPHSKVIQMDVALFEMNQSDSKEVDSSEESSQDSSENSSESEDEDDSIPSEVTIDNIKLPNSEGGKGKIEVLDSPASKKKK
UniProt Q4LE39: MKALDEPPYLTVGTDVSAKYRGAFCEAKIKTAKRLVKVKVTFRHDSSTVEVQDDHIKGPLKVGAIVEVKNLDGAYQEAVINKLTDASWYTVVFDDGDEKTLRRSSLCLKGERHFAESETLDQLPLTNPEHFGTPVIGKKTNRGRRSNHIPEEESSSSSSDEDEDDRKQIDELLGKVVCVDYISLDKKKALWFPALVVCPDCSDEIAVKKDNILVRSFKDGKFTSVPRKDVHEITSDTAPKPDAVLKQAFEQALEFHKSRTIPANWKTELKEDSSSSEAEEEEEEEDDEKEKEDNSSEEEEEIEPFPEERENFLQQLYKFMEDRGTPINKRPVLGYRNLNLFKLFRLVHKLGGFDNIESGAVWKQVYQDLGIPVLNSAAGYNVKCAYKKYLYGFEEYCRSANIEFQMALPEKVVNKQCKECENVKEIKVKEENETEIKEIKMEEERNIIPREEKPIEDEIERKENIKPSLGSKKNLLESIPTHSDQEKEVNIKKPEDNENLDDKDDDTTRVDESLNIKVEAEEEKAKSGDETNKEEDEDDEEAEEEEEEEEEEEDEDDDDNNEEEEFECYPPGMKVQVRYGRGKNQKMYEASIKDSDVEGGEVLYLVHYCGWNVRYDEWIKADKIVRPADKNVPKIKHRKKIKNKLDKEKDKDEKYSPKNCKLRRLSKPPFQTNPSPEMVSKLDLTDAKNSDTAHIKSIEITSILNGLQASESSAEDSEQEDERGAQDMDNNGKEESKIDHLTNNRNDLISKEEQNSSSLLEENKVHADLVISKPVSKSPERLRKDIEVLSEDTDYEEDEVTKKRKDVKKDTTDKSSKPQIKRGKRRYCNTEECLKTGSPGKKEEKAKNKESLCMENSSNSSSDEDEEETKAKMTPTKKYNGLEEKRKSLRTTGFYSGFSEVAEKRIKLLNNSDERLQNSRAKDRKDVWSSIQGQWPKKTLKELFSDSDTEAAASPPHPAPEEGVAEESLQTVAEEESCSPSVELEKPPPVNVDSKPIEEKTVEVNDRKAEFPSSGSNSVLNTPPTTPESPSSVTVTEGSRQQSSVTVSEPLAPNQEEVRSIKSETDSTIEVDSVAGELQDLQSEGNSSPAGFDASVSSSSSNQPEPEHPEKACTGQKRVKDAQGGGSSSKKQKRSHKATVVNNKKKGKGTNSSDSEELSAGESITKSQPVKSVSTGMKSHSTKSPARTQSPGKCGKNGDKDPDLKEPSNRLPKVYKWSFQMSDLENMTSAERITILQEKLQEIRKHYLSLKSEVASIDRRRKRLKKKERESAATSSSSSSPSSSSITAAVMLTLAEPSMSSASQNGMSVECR
UniProt Q9UBB4: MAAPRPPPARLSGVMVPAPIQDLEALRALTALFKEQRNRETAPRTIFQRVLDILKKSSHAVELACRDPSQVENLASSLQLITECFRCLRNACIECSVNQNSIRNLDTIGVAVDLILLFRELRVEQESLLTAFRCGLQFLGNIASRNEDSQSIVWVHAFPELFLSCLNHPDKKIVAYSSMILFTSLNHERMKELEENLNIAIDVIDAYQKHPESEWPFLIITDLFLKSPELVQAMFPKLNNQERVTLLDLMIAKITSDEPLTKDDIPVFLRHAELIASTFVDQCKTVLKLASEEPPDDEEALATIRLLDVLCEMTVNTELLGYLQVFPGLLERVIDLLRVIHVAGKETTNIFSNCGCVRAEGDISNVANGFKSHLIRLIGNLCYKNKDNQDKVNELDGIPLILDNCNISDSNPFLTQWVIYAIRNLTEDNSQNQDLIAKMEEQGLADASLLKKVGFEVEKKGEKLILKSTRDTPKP
UniProt O00244: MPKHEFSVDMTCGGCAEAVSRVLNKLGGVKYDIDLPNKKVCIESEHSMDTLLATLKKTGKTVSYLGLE
UniProt Q9UBW5: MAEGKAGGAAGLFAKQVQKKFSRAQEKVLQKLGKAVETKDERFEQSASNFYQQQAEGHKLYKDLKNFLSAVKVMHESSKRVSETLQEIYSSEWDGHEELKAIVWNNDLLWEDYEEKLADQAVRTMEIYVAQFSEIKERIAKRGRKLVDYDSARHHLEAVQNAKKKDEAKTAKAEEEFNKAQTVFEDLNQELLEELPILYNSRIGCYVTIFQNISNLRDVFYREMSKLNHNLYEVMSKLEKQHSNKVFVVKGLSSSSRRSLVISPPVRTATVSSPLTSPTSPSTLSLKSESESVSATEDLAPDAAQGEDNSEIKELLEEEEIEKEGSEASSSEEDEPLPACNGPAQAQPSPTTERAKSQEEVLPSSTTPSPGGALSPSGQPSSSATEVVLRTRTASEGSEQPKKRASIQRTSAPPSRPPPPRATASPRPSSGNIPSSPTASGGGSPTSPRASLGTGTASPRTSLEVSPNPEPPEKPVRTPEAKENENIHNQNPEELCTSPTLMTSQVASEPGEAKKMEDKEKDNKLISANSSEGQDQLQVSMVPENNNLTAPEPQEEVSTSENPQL
UniProt P98171: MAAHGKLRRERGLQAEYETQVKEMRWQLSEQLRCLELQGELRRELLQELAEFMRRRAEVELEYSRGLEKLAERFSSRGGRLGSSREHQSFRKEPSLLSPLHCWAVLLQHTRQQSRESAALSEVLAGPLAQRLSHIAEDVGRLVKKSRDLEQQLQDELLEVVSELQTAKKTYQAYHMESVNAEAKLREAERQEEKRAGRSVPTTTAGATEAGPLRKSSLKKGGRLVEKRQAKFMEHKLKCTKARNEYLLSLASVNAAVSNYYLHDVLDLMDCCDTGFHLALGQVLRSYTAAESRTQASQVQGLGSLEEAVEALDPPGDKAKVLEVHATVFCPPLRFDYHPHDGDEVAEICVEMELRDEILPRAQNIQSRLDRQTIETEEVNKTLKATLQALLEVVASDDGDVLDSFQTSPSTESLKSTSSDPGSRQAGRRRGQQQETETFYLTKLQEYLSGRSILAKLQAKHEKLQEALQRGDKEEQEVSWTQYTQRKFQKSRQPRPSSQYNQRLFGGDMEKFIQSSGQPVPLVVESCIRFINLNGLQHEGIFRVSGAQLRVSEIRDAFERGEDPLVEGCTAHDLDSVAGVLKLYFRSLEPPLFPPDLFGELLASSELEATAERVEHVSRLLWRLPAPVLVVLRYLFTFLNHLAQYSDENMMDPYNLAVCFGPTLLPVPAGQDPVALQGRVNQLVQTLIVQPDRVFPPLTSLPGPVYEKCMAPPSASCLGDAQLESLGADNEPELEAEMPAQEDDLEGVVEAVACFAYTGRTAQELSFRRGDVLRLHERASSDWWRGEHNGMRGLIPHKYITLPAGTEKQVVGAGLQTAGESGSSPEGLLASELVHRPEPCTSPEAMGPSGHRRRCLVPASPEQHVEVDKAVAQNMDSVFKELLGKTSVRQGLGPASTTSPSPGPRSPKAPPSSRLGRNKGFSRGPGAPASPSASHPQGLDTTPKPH
UniProt Q0VDD7: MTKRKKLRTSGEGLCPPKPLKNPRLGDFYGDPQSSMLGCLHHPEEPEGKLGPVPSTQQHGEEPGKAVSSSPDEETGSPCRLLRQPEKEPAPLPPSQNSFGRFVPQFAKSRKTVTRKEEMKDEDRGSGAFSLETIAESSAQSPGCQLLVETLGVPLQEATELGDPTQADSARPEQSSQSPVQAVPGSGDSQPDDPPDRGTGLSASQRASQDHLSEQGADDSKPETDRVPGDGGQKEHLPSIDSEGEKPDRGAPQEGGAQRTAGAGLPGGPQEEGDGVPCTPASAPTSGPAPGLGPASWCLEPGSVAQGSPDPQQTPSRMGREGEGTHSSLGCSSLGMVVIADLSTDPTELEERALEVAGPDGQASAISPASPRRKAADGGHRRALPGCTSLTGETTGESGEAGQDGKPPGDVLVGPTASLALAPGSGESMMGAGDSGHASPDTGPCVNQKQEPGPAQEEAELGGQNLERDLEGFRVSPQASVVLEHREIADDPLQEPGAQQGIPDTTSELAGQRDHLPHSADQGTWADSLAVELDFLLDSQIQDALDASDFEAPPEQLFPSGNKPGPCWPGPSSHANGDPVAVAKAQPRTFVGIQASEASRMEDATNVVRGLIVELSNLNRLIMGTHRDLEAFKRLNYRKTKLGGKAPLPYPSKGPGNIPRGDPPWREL
UniProt A6NDU8: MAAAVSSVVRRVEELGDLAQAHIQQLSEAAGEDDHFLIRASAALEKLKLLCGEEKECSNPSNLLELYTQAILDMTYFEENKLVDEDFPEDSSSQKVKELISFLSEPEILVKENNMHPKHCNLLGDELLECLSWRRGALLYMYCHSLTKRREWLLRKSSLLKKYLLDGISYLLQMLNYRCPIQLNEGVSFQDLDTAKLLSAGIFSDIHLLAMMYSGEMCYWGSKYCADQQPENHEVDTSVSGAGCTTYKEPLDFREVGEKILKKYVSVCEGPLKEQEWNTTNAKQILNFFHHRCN

The targets below were run with Nc1nc2c(ncn2[C@@H]2O[C@H](COP(=O)(O)OP(=O)(O)OP(=O)(O)O)[C@@H](O)[C@H]2O)c(=O)[nH]1 (assay: dose-dependent thermal stabilisation call (2D-TPP, DLPTP, 10% FDR) (binary (1 = stabilised)); higher = stabilised by the compound). Conditions: system: Jurkat gel-filtered lysate; concentration range 1-500 µM.

Target | dose-dependent thermal stabilisation call
C10orf88 (UniProt Q9H8K7) | inactive: 0
BDP1 (UniProt A6H8Y1) | inactive: 0
BRD4 (UniProt O60885) | inactive: 0
BACH1 (UniProt O14867) | inactive: 0
ASMTL (UniProt O95671) | inactive: 0
BLOC1S2 (UniProt Q6QNY1) | inactive: 0
BORA (UniProt Q6PGQ7) | inactive: 0
ARL6 (UniProt Q9H0F7) | active: 1
BCL2L1 (UniProt Q07817) | inactive: 0
ASAH1 (UniProt Q13510) | inactive: 0
CAPNS1 (UniProt P04632) | inactive: 0
C7orf25 (UniProt Q9BPX7) | inactive: 0
ASNSD1 (UniProt L0R819) | inactive: 0
C11orf54 (UniProt Q9H0W9) | inactive: 0
BOD1L1 (UniProt Q8NFC6) | inactive: 0
ATP6V1B2 (UniProt P21281) | inactive: 0
C12orf45 (UniProt Q8N5I9) | inactive: 0
ARID4B (UniProt Q4LE39) | inactive: 0

An excerpt of these results, in CSV form.
Target,dose-dependent thermal stabilisation call
BRD4 (UniProt O60885),inactive: 0
BACH1 (UniProt O14867),inactive: 0
ASMTL (UniProt O95671),inactive: 0
BLOC1S2 (UniProt Q6QNY1),inactive: 0
BORA (UniProt Q6PGQ7),inactive: 0
ARL6 (UniProt Q9H0F7),active: 1
BCL2L1 (UniProt Q07817),inactive: 0
ASAH1 (UniProt Q13510),inactive: 0
CAPNS1 (UniProt P04632),inactive: 0

Additional results.

Target | dose-dependent thermal stabilisation call
BECN1 (UniProt Q14457) | inactive: 0
ATXN10 (UniProt Q9UBB4) | inactive: 0
BCR (UniProt P11274) | inactive: 0
C10orf76 (UniProt Q5T2E6) | inactive: 0
BLVRB (UniProt P30043) | inactive: 0
ARSB (UniProt P15848) | inactive: 0
CALU (UniProt O43852) | inactive: 0
CALR (UniProt P27797) | inactive: 0
ARL2BP (UniProt Q9Y2Y0) | inactive: 0
ATRX (UniProt P46100) | inactive: 0
ATOX1 (UniProt O00244) | inactive: 0
C9orf78 (UniProt Q9NZ63) | inactive: 0
BIN2 (UniProt Q9UBW5) | inactive: 0
ARHGAP4 (UniProt P98171) | active: 1
C19orf57 (UniProt Q0VDD7) | inactive: 0
BRF1 (UniProt Q92994) | inactive: 0
C5orf51 (UniProt A6NDU8) | active: 1
ARHGEF18 (UniProt Q6ZSZ5) | inactive: 0
